# From patent US6991937B2, “Urine cystine quantitation and supersaturation assay” (Litholink Corporation, priority 2001, dated 2006)
# Columns and labels:
# [1] = Dissolution of solid phase cystine by cystine binding drugs in normal urine; set-up: species or system human; conditions: ten normal urine samples, 48 hours, 37° C.
# Experimental: Using the same incubation buffer and cystine-dissolving agent systems as for the initial solid phase dissolution assay given in Example 1, increasing amounts of D-penicillamine, tiopronin, or captopril were added to 25 ml aliquots of the incubation buffer. A fixed amount of cystine was added; for tiopronin and D-penicillamine, about 40 mg, and for captopril about 20 mg. […] Incubation was carried out as in Example 1. After 48 hours, the pellet and supernatant were separated by centrifugation, the pellet was dissolved in 25 ml of cystine-dissolving agent, an alkalinizing buffer of 0.1 M sodium carbonate, pH 9.9, (Sigma Aldrich Corp, Catalog # S-7795), to form a final cystine solution. Cystine concentration was determined both in the supernatant and the final cystine solution according to the procedure given in Example 3. This same protocol was repeated using the ten normal urine samples employed in the basic solid phase dissolution study described in Example 1.
# Cystine concentrations in either the incubation buffer or normal urine after removal of the residual solid phase cystine, or the final cystine solution after the dissolution of the solid phase cystine in a cystine-dissolving agent as shown in Example 1 and 2 were measured using the modified cyanide-nitroprusside method for quantifying urinary cystine concentration as reported by Nakagawa and Coe (Nakagawa, Y. and Coe, F. 1999. Clin Chim Acta 289:57–68). A 100 microliter aliquot was mixed with 400 microliters of water and 1 milliliter of 0.01 M sodium phosphate buffer containing 0.15 mol/liter NaCl, pH 7.3 (PBS). After adding 300 microliters of 10% NaCN aqueous solution (w/v), the sample was incubated for twenty minutes at room temperature. Color was developed by adding 100 microliters of 20% sodium nitroprusside aqueous solution (w/v). Within 20 seconds of the sodium nitroprusside addition, color intensity was then measured at 521 nm using a Beckman spectrophotometer (model DU 640), and cystine concentration was calculated by comparison to a standard curve which was prepared with each assay. […]
# [2] = Effect of thiol drugs on reducing (cyanide-nitroprusside) assay in buffer saturated with cystine; conditions: drug added to saturated solution of cystine in buffer (FIG. 5B)
SMILES,"Regression intercept, URINE [1]",effect on reaction signal of reducing assay [2]
CC(C)(S)[C@@H](N)C(=O)O [D-penicillamine],1.41 ± 0.06,initially reduced the reaction signal
C[C@H](CS)C(=O)N1CCC[C@H]1C(=O)O [captopril],1.36 ± 0.04,large signal increase
CC(S)C(=O)NCC(=O)O (stereo not drawn) [tiopronin],1.51 ± 0.06,lesser increase
